# These are yes or no findings as the source states them, for the method shown. Binding seen in cells or lysates may run through a third protein. A yes stands for co-enrichment or nearness to the bait. Other partners may have been found. Tags and fused reporters may be left off the sequences shown.
# Protein sequences, listed by entry. Tags and fused reporters are not part of them.
# UniProt O09106: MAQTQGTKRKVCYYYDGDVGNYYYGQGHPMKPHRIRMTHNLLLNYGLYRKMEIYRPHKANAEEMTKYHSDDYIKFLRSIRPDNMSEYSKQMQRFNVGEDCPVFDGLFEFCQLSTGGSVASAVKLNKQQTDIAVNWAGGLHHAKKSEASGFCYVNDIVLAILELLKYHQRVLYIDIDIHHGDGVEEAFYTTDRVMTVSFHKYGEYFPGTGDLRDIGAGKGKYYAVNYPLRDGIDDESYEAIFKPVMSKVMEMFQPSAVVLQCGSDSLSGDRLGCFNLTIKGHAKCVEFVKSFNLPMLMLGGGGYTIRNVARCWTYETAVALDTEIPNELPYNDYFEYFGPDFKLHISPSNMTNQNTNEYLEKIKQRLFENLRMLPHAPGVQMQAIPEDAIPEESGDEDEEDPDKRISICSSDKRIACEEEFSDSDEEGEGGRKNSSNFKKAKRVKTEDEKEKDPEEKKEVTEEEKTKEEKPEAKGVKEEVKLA
# UniProt P70288: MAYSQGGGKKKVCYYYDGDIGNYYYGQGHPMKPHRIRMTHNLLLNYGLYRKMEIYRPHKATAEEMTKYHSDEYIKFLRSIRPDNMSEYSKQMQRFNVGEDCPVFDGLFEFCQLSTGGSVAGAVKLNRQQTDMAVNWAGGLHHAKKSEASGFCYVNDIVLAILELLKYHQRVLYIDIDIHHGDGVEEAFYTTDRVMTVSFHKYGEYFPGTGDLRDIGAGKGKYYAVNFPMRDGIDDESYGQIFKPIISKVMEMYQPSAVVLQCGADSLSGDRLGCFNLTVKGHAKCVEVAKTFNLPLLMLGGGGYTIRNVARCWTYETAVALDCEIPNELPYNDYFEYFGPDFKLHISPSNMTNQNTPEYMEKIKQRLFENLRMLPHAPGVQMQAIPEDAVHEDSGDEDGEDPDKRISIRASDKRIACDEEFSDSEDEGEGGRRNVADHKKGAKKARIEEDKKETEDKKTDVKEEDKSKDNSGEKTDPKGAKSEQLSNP
# UniProt A2AWL7: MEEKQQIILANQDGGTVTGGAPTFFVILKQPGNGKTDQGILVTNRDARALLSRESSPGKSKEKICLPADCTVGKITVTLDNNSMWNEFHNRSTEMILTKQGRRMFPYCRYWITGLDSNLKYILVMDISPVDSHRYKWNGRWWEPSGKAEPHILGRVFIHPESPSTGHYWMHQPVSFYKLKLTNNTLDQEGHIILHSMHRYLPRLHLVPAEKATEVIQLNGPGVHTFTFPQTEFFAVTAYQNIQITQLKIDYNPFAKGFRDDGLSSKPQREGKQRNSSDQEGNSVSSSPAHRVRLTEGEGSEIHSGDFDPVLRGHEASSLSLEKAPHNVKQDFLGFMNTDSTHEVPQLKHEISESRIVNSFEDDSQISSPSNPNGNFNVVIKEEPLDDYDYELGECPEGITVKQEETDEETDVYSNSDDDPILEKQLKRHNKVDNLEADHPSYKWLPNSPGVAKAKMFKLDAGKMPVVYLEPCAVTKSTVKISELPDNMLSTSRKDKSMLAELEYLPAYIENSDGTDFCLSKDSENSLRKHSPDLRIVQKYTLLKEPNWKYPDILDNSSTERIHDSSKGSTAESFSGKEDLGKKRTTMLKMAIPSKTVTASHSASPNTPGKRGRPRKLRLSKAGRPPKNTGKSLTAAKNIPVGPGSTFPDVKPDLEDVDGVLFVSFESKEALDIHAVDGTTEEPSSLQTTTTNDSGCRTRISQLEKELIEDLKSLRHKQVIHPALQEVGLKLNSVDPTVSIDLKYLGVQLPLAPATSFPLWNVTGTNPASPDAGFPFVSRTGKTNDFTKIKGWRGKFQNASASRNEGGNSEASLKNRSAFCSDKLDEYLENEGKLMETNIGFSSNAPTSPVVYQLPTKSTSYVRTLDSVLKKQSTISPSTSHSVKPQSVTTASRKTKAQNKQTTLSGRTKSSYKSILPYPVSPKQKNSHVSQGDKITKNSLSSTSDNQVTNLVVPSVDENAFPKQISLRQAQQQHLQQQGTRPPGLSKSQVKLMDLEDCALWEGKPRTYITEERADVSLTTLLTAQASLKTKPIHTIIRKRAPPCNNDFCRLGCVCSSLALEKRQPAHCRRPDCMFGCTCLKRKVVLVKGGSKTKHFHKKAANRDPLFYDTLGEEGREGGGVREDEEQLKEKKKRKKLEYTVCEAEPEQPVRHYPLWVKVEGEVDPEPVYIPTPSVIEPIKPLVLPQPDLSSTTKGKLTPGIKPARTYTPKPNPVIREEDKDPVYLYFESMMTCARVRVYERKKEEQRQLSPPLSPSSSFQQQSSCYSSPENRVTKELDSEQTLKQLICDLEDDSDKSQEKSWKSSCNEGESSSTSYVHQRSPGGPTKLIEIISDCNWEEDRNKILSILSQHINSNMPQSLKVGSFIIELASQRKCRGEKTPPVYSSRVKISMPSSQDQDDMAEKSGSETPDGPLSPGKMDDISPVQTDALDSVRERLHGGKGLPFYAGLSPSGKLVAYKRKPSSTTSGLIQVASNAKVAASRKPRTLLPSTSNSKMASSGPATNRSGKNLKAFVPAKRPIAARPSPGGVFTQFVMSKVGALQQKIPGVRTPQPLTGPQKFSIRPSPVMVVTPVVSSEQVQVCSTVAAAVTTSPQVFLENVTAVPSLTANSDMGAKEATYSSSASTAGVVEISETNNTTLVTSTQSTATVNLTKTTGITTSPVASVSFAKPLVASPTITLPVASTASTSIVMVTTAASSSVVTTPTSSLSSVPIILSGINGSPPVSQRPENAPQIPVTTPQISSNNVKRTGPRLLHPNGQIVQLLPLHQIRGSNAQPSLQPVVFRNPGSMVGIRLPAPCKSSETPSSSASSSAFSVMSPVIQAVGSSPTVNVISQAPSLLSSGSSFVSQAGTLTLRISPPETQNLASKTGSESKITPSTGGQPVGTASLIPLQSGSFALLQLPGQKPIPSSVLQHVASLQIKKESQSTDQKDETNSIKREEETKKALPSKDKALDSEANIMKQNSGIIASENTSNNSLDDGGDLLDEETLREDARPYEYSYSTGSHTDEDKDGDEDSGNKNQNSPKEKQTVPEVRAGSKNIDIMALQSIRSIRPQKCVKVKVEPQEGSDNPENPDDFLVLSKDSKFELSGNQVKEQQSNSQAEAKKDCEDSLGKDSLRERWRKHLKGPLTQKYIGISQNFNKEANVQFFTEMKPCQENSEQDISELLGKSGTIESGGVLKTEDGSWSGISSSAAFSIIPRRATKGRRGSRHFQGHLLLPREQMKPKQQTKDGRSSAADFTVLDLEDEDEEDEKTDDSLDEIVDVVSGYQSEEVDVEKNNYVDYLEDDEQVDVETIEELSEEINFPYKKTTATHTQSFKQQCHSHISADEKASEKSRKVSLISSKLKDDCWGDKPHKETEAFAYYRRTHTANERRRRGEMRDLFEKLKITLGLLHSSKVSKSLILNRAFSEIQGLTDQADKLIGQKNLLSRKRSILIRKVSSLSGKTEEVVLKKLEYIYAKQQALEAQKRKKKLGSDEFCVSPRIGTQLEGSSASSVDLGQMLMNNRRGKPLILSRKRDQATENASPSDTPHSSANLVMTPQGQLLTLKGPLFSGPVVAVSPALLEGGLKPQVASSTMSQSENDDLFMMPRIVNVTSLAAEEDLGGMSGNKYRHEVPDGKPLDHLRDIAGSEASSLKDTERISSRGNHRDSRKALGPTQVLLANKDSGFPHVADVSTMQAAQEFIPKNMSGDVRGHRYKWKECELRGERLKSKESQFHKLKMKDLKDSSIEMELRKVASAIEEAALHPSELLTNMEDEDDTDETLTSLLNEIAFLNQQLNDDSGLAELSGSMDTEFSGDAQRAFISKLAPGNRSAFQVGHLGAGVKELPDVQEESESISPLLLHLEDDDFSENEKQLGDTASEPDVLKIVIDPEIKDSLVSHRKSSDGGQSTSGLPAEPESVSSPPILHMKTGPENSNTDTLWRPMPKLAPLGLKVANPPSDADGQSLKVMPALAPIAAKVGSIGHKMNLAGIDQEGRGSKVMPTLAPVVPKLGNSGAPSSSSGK
# UniProt Q8C796: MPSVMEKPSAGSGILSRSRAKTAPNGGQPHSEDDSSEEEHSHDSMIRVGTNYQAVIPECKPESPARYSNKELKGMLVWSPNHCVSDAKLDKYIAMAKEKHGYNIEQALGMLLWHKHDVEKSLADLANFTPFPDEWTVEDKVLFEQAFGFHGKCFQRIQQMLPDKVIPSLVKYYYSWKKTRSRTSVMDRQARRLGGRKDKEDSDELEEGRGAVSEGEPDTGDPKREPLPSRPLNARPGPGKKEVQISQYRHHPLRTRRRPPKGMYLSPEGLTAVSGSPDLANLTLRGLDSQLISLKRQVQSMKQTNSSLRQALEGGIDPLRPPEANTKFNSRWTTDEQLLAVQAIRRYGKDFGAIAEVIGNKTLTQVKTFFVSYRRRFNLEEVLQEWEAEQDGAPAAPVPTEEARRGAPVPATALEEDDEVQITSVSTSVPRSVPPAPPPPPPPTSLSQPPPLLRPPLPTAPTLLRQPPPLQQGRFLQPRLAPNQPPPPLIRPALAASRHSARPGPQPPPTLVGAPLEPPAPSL
# UniProt A2A791: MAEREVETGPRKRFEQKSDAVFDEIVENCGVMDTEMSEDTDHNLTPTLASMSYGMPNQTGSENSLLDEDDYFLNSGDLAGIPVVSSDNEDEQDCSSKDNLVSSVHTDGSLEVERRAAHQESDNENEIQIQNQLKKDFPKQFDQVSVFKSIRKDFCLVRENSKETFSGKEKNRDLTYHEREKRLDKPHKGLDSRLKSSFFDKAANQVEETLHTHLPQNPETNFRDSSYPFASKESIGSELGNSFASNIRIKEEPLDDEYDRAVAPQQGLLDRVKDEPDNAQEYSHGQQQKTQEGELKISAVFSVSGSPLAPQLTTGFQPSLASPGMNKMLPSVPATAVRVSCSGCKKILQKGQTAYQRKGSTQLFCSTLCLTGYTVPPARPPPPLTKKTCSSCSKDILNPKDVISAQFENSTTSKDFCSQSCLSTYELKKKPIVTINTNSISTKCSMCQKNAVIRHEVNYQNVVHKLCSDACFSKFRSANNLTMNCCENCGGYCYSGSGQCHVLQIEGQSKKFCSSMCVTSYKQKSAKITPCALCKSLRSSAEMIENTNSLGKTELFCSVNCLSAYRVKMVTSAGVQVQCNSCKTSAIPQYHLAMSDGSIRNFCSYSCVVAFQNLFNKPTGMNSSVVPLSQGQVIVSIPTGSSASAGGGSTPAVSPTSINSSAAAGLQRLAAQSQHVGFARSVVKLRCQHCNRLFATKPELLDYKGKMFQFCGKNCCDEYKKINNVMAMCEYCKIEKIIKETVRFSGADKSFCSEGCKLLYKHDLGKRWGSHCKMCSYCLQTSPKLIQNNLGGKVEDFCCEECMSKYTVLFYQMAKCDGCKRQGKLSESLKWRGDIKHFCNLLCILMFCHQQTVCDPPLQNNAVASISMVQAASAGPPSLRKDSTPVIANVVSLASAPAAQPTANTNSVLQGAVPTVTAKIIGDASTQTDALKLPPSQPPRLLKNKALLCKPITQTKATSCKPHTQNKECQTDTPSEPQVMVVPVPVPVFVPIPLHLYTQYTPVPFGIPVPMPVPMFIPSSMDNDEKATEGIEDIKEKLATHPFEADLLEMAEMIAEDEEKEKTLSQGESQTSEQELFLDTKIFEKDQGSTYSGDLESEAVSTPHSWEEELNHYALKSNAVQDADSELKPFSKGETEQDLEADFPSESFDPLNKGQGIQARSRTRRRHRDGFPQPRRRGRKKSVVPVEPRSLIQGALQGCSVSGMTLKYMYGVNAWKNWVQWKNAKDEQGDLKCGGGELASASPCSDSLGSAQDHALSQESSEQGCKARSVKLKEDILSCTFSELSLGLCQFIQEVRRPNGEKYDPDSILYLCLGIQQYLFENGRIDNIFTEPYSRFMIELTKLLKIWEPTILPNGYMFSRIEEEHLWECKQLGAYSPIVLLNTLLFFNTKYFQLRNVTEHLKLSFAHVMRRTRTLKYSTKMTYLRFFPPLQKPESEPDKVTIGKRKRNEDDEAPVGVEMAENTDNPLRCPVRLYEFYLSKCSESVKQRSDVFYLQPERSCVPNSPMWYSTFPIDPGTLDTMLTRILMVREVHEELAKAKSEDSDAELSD
# T1: GST-tagged FNIII domain of mouse ATF7IP (mouse) (UniProt Q7TT18)
# T1 sequence: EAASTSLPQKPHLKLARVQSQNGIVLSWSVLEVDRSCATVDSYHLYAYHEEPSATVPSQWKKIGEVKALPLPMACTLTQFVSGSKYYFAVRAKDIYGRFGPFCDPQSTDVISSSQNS
# Molecular target: T1, GST-tagged FNIII domain of mouse ATF7IP (mouse)
# Assay: affinity purification with mass spectrometry; GST-tagged FNIII domain immobilised on Glutathione 4B sepharose (2 µg protein/10 µL beads), incubated with the nuclear fraction of Atf7ip KO mESCs in normal-lysis buffer (150 mM NaCl, 1% NP-40) at 4 °C overnight; bound proteins identified by LC-MS/MS; only the target purified
row,binding,Molecule
1,binds,endogenous Hdac1 (mESC nuclear lysate) (from UniProt O09106 1-482)
2,binds,endogenous Hdac2 (mESC nuclear lysate) (from UniProt P70288 1-488)
3,binds,endogenous KIAA1551 (mESC nuclear lysate) (from UniProt Q5DTW7 1-1521)
4,binds,endogenous MGA (mESC nuclear lysate) (from UniProt A2AWL7 1-3003)
5,binds,endogenous Rcor2 (mESC nuclear lysate) (from UniProt Q8C796 1-523)
6,binds,endogenous ZMYM4 (mESC nuclear lysate) (from UniProt A2A791 1-1549)
7,binds,"endogenous ZFP518A (mESC nuclear lysate) (protein, UniProt B2RRF6 1-1478) MPFEQTQLFCDEKPTILKKLDTRNEIADTIRSVSTSKISETSFQYVLKDVNICLPKINIPNEILMKHEVEKYRLLFQSKPQTARKSISVKTVSCAEECVLLCKSERAEDETVNMSAKILNFSCSKCQDSTQYSPNDLQKHFEMWHHGELPSFPCEMCSFSASDFQIFKQHRKTHRNTFVKCDICNSERSYTLLDLTKHFTSKHCVNGNFQCEECRFFTQDVGTFVQHIHRHKEVHYKCGKCHHLCFTKGELQKHLRVHSGTLPFTCHYCSYGAIHKDQLIRHVITLHKEHLYAKEKLERDQYDKRVAKTTTTGLKLILKRYKIGPTKTFWKRKTITSGNDESIGKNAQAFNIVSKTQTKSEDQSQEQVNGEKGEKQHCENGDKPVESESEKATVLSTGQYNKADEGASTTSSSVLSAVQGPTVLLVRNNKITIPANYSAKFMGFKMVDGRQHIVIKLLPANKQILPSPVLQSNTEKNSTANLSPQAVANTGFATGLTTKVNDTDFVKAAPPACSSPVLARKVISEKEAAFISEKNNTLQMVDDSKSLSSLPTTSTTSVRVTTKVEARDNVDLWENDSPQSHPDASDTSISSPDKVSLTPKPNAYSSGDMHNYCINYVNSELPAESSNSFEFSNQGSLPFHNYSKVNNKRRRFSRATLCENLQKESPNKTVTQQSTSDSDTASPLLRKESSNSDNLFASINPLNGTLKIKTEIEEPYNLEETQNFNEQSLFTNENQNLLNVTEEPKWNDIPSAGSPMMPRITSVFSLQSEQASEFLTPEVNQLLQDTLKPKSDIKEDSNNIPSKNLPFDCDQTLKKSEEVVIKSSKDFQMQDDIPVPSASVGVNVPANDLNSKCNGQEKQGLSVLQDVRDSEVTTKIPNIITLLKTQSDAIITQQLVKDKLRTTTQNSGPVYVQNPFLTSEQKNPVFVQTPKGFIIPLHVANKPGLHVFSGRPVPLVNTRSVPATLLVNKKPGMLLATNNGKPESVPTVKTENVHSYGTVTKEPCKTPFLKAEHNNSCLTPGLCSSIGNCVNMKTCSENTLPLKGSYIIKTSVNSSVKAVPNILPEQQGPKMNILDTVKQQNENLPKASLYTLMPDGKQAVFFKCVMPNNTKLLKPKLVQSSTYQHIQPKRPAGAPQKILVKIFNPVLSMSAFNNLSASNSASSFQKEIVPSKPTVHGEQKEPETSRNALPVLVHGLMPANETVHSSTTACPGSSEEPVYISERSETRVLRGKANCAVERNFNKRKTCKNKFAKIKTRIDQDSETAFVSRNRSCKRKYIDNYQEPPRKKSTLNRKGKERASAEDVQEAFGFSRPRLPKDSSRTLRLFPFSSKQLVKCPRRNQPVVVLNHPDADTPEVERVMKTIAKFNGHVLKVSLSQTTINALLKPVSNTSETTYNDFSKRQKMLKPVNSVKERFVLKLTLKKTSKNNYQIVKTTSEDVLKSQFNCWFCGRVFDNQDVWAGHGQRHLVEATRDWNMLE"
8,binds,"endogenous Cpsf2 (mESC nuclear lysate) (protein, UniProt O35218 1-782) MTSIIKLTTLSGVQEESALCYLLQVDEFRFLLDCGWDEHFSVDIIDSLRKHVHQIDAVLLSHPDPLHLGALPFAVGKLGLNCAIYATIPVYKMGQMFMYDLYQSRHNTEDFTLFTLDDVDAAFDKIQQLKFSQIVNLKGKGHGLSITPLPAGHMIGGTIWKIVKDGEEEIVYAVDFNHKREIHLNGCSLEMLSRPSLLITDSFNATYVQPRRKQRDEQLLTNVLETLRGDGNVLIAVDTAGRVLELAQLLDQIWRTKDAGLGVYSLALLNNVSYNVVEFSKSQVEWMSDKLMRCFEDKRNNPFQFRHLSLCHGLSDLARVPSPKVVLASQPDLECGFSRDLFIQWCQDPKNSIILTYRTTPGTLARFLIDNPTEKVTEIELRKRVKLEGKELEEYVEKEKLKKEAAKKLEQSKEADIDSSDESDVEEDVDQPSAHKTKHDLMMKGEGSRKGSFFKQAKKSYPMFPAPEERIKWDEYGEIIKPEDFLVPELQATEEEKSKLESGLTNGEEPMDQDLSDVPTKCVSATESIEIKARVTYIDYEGRSDGDSIKKIINQMKPRQLIIVHGPPEASQDLAECCRAFGGKDIKVYMPKLHETVDATSETHIYQVRLKDSLVSSLQFCKAKDAELAWIDGVLDMRVSKVDTGVILEEGELKDDGEDSEMQVDAPSDSSAMAQQKAMKSLFGEDEKELGEETEIIPTLEPLPPHEVPGHQSVFMNEPRLSDFKQVLLREGIQAEFVGGVLVCNNQVAVRRTETGRIGLEGCLCQDFYRIRDLLYEQYAIV"
9,binds,"endogenous ZMYM2 (mESC nuclear lysate) (protein, UniProt Q9CU65 1-1376) MDTSSVGTLELTDQTPVLLGSTAMATSLTNVGNSFSGPPNPLVSRSSKFQNSSVEDDDDVVFIEPVQPPPSSAPLVADQRPITFTSSKNEELQGNDPKILPSSKELAPQKGSVSETIVIDDEEDMETNQGQEKSSSNFIERRPSETKNRTNDVDFSSSTFSRSKVNAGVSNSGITTEPDSEIQIANVTTLETGVSSVSDGQLESTDGRDMNLMITHVTSLHNTSLGDGSNGLQSSNFGVNIQTYTPSLTSQTKAGVGPFNPGRMNVAGDVFQNGESAPHHNPDSWISQSASFPRNQKQQGVDSLSPVASLPKQIFQPSNQQPTKPVKVTCANCKKPLQKGQTAYQRKGSAHLFCSTTCLSSFSHKPAPKKLCVMCKKDITTMKGTIVAQVDSSESFQEFCSTSCLSLYEDKQSPAKGALNKSRCTICGKLTEIRHEVSFKNMTHKLCSDHCFNRYRMANGLIMNCCEQCGEYLPSKGAGNNVLVVDGQQKRFCCQSCVTEYKQVGSHPSFLKEVRDHMQDSFLMQPEKYGKLTTCTGCRTQCRFFDMTQCIGPNGYMEPYCSTACMNSHKTKYAKSQSLGIICHFCKRNSLPQYQATMPDGKLYNFCNSSCVAKFQALSMQSSPNGQFVAPSDIQLKCNYCKNSFCSKPEILEWENKVHQFCSKTCSDDYKKLHCIVTYCEYCQEEKTLHETVNFSGVKRPFCSEGCKLLYKQDFARRLGLRCVTCNYCSQLCKKGATKELDGVVRDFCSEDCCKKFQEWYYKAARCDCCKSQGTLKERVQWRGEMKHFCDQHCLLRFYCQQNEPNMTTQKGPENLHYDQGCQTSRTKMTGSAPPPSPTPNKEMKNKAILCKPLTMTKATYCKPHMQTKSCQTDENWKTEYVPVPIPVPVYVPVPMHMYSQNIPVPTTVPVPVPVPVFLPAPLDSSEKIPATVEDLKSKVSSDPLDSELLTMTDMMTEEEGKAEASNINSVIIETDIIGSDLTKNSDPDIQSNMPDVPYEPDLDIEIDFPRAAEELDMENEFLLPPVFGEEYEEQPRPRSKKKGTKRKAVSGYQSHDDSSDNSECSFPFKYTYGVNAWKHWVKTRQLDEDLLVLDELKSSKSVKLKEDLLSHTTAELNYGLAHFVNEIRRPNGENYAPDSIYYLCLGIQEYLCGSNRKDNIFIDPGYQMFEQELNKILRSWQPSILPDGSIFSRVEEDYLWRIKQLGSHSPVALLNTLFYFNTKYFGLKTVEQHLRLSFGTVFRHWKKNPLTMENKACLRYQVSSLCGTDNEDKIATGKRKHEDDEPVFEQVENTANPSRCPVKMFECYLSKSPQNLNQRMDVFYLQPECSSSTDSPVWYTSTSLDRNTLENMLVRVLLVKDIYDKDNYELDEDTD"
10,binds,"endogenous Cstf2t (mESC nuclear lysate) (protein, UniProt Q8C7E9 1-632) MSSLAVRDPAMDRSLRSVFVGNIPYEATEEQLKDIFSEVGSVVSFRLVYDRETGKPKGYGFCEYQDQETALSAMRNLNGREFSGRALRVDNAASEKNKEELKSLGPAAPIIDSPYGDPIDPEDAPESITRAVASLPPEQMFELMKQMKLCVQNSHQEARNMLLQNPQLAYALLQAQVVMRIMDPEIALKILHRKIHVTPLIPGKSQPVSGPGPGGPGPSGPGGPGPGPAPGLCPGPNVMLNQQNPPAPQPQHLPRRPVKDIPPLMQTSIQGGIPAPGPIPAAVPGPGPGSLTPGGAMQPQVGMPVVGPVPLERGQMQISDPRPPMPRGPMPSGGIPPRGLLGDAPNDPRGGTLLSVTGEVEPRGYMGPPHQGPPMHHGHDNRGPASHDMRGGPLAADPRMLIGEPRGPMIDQRGLPMDGRGGRESRGMETRPMETEVLEPRGMERRMETCAMETRGMDARGLEMRGPGPSSRGPMTGGIQGPGPINMGAGGPQGPRQVPNIAGVGNPGGTMQGAGIQGGGMQGAGMQGGGMQGAGMQGGGMQGAGMQAGMQGASMQGGMQGAGMQGASKQGGGQPSSFSPGQSQVTPQDQEKAALIMQVLQLTADQIAMLPPEQRQSILILKEQIQKSTGAS"
